Measurements published in the M2OR odorant receptor database.
Numbering of substitutions follows the chain as printed. Only a part is listed here, and it is no random draw. Calls are pooled over several reports, among them a noisy single-well screen. The list shows a part of the results.

Chains of the proteins cited; added tags and fusions are not shown. Chains listed by the source or under a name are the forms on record and can include a tag or linker.
O10A6, as listed by the source: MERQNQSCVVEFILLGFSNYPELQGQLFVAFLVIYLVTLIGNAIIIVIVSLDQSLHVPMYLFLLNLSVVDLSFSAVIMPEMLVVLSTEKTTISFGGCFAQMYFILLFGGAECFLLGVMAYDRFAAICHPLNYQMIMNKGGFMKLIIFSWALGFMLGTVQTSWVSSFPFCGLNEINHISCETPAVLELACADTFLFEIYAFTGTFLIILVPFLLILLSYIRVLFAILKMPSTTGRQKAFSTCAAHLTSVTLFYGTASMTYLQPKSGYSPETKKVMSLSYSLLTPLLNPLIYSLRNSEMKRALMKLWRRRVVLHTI
O10G4, as listed by the source: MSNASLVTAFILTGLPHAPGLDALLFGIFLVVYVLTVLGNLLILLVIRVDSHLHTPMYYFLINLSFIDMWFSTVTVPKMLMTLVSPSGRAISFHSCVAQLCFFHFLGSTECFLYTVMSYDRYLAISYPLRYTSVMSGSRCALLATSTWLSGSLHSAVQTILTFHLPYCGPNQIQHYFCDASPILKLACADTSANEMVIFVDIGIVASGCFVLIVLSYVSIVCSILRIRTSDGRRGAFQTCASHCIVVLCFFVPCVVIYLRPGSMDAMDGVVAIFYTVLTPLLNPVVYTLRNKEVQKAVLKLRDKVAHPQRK
O10C1, as listed by the source: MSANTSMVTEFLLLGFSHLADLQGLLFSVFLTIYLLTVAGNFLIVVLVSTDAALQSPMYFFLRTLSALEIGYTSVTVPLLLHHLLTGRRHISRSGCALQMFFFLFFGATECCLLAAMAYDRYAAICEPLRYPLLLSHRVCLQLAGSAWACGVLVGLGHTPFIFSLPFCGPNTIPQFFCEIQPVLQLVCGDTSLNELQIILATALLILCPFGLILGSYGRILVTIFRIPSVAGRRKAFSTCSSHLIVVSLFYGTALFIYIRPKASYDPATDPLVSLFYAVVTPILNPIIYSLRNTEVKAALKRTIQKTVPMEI

Tests used:
Settings in all cases: stereoisomer not certain
O10A4 = tested on: T1, O10A4
T1 sequence (whole entry): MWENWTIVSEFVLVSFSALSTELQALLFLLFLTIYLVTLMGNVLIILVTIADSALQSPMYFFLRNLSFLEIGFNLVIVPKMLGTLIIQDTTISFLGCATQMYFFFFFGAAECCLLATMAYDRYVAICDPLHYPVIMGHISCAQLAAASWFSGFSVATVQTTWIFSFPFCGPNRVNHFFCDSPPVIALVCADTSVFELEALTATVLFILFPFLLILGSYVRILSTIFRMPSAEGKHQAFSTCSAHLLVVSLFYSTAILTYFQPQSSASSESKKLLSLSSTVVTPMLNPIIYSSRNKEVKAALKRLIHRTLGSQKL
In short: (§1)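 Transient luciferase assays in mammalian cell lines were common, though methods varied by source. The values come from published papers and their supplementary material, with extra details from the original authors when needed. Responsive refers to a measured signal the original authors judged statistically different from baseline, and non-responsive (inactive) to the remainder.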

O10A5 = tested on: T2, O10A5
T2 sequence (whole entry): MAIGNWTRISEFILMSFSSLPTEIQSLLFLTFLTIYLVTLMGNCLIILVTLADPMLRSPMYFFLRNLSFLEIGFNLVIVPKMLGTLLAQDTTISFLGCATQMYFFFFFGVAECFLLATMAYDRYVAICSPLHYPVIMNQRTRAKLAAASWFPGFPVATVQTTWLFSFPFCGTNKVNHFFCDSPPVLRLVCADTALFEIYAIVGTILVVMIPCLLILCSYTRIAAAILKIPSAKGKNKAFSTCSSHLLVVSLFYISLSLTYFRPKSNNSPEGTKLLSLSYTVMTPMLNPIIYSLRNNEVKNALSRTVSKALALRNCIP
In short: as §1

O10AD = tested on: T3, O10AD
T3 sequence (whole entry): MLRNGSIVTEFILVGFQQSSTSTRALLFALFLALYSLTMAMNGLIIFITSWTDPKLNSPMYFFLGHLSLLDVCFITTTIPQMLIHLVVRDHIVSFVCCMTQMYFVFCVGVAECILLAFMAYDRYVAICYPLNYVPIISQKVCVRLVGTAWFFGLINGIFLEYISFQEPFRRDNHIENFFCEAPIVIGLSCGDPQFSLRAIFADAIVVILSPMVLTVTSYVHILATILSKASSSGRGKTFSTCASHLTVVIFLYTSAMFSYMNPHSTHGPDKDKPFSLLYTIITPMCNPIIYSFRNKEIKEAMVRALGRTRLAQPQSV
In short: as §1

O10C1 [1] = tested on: T4, O10C1
T4 sequence (whole entry): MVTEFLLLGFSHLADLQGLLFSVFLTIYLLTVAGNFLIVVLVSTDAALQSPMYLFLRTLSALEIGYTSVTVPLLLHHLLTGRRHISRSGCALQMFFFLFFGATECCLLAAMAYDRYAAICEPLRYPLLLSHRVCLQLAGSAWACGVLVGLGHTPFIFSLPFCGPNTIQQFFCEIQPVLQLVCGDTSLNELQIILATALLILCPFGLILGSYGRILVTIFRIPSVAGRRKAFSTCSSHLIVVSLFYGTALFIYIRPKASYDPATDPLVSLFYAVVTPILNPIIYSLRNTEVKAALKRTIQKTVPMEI
In short: as §1

O10D3 = tested on: T5, O10D3
T5 sequence (whole entry): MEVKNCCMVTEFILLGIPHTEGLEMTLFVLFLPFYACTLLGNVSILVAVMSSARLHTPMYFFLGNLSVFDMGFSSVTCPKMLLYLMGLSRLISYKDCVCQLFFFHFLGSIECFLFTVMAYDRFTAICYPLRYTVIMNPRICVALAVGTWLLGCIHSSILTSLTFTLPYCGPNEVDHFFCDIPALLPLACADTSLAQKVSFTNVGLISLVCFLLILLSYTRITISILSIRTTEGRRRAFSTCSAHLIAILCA
In short: as §1

O10G3 = tested on: T6, O10G3
T6 sequence (whole entry): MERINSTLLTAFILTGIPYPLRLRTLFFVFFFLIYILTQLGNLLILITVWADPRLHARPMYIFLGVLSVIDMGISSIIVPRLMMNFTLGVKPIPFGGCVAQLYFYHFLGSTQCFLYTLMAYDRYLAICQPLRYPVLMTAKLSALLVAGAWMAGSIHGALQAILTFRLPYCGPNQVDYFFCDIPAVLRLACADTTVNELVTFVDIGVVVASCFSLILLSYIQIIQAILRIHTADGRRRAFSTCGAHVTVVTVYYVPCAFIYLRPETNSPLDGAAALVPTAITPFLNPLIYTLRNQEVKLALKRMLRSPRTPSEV
In short: as §1

O10G4 [2] = tested on: T7, O10G4
T7 sequence (whole entry): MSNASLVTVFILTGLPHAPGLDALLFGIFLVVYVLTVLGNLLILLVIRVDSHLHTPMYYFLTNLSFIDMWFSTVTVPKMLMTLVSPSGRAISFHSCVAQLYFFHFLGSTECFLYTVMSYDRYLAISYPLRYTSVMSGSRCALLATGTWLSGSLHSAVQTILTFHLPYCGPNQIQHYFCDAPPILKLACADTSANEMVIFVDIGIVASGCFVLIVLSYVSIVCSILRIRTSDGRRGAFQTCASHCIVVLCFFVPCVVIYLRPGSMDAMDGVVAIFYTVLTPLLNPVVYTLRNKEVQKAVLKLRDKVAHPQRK
In short: as §1

O10G9 = tested on: T8, O10G9
T8 sequence (whole entry): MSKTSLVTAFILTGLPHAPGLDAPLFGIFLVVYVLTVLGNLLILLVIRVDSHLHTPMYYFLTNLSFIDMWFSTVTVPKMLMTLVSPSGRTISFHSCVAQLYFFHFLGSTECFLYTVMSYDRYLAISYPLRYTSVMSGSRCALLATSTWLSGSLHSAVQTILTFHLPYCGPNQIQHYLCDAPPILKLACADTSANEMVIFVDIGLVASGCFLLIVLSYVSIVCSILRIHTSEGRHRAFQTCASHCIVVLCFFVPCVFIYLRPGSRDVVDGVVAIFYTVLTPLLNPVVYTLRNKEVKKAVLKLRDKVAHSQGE
In short: as §1

O10H2 = tested on: T9, O10H2
T9 sequence (whole entry): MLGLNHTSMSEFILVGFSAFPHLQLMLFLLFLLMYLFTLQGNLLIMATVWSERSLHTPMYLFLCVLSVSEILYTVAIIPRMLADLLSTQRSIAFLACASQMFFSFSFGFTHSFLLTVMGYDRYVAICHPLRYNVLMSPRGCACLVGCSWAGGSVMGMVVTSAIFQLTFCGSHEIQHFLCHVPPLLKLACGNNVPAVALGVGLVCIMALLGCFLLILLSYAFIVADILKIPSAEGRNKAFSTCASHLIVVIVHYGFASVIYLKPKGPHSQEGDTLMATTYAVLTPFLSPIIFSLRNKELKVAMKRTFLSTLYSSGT
In short: as §1

O10H5 = tested on: T10, O10H5
T10 sequence (whole entry): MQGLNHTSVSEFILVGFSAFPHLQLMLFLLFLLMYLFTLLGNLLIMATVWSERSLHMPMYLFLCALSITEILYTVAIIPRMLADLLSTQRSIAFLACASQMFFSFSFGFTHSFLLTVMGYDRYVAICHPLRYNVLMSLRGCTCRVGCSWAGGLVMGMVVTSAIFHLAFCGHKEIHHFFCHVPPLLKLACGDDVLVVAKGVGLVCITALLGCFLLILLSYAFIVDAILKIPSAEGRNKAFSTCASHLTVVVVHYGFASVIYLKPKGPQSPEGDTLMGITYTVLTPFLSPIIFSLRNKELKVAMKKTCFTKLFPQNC
In short: as §1

O10J1 = tested on: T11, O10J1
T11 sequence (whole entry): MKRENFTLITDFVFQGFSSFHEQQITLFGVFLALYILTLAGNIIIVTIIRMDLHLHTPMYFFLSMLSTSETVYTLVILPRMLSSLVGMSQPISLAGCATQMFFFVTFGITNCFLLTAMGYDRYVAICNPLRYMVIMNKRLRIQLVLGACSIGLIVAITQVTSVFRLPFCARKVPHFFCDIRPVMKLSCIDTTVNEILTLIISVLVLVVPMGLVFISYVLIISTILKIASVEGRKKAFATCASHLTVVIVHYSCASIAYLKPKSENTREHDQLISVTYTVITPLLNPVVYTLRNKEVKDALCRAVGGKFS
In short: as §1

O10A6 [3] = tested on: T12, O10A6
T12 sequence (whole entry): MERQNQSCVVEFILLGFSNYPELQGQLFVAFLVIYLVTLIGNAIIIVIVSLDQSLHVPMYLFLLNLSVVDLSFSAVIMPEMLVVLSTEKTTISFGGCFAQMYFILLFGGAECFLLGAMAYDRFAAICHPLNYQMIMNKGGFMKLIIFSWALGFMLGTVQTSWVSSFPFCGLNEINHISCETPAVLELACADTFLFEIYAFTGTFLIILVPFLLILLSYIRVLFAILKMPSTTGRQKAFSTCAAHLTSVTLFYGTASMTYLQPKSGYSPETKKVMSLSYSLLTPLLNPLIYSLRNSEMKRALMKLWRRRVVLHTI
In short: as §1

O10A6 [4] = tested on: O10A6; remark: listed apart in the source
In short: as §1

O10A6 [5] = tested on: T13, O10A6; remark: listed apart in the source
T13 sequence (whole entry): T12 sequence (whole entry) with A117V
In short: as §1

O10C1 [6] = tested on: O10C1; remark: listed apart in the source
In short: as §1

O10C1 [7] = tested on: O10C1; remark: listed apart in the source
In short: as §1

O10G4 [8] = tested on: O10G4; remark: listed apart in the source
In short: as §1

O10G4 [9] = tested on: O10G4; remark: listed apart in the source
In short: as §1

O10G4 [10] = tested on: O10G4; remark: listed apart in the source
In short: as §1
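Further: active if original authors judged signal statistically different from baseline.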

SMILES	odorant receptor agonist call (O10A4)	odorant receptor agonist call (O10A5)	odorant receptor agonist call (O10AD)	odorant receptor agonist call (O10C1 [1])	odorant receptor agonist call (O10D3)	odorant receptor agonist call (O10G3)	odorant receptor agonist call (O10G4 [2])	odorant receptor agonist call (O10G9)	odorant receptor agonist call (O10H2)	odorant receptor agonist call (O10H5)	odorant receptor agonist call (O10J1)	odorant receptor agonist call (O10A6 [3])	odorant receptor agonist call (O10A6 [4])	odorant receptor agonist call (O10A6 [5])	odorant receptor agonist call (O10C1 [6])	odorant receptor agonist call (O10C1 [7])	odorant receptor agonist call (O10G4 [8])	odorant receptor agonist call (O10G4 [9])	odorant receptor agonist call (O10G4 [10])
CCCCCCCC=O	inactive	inactive	inactive	inactive	inactive	inactive	inactive	inactive	inactive	inactive	inactive	–	–	–	–	–	–	–	–
COc1cc(C)ccc1O	inactive	inactive	inactive	inactive	inactive	inactive	active	inactive	inactive	inactive	inactive	–	–	–	–	–	–	–	–
c1ccc(Oc2ccccc2)cc1	inactive	inactive	inactive	inactive	inactive	inactive	inactive	inactive	inactive	inactive	inactive	–	–	–	–	–	–	–	–
CCCCCC(=O)O	inactive	inactive	inactive	inactive	inactive	inactive	inactive	inactive	inactive	inactive	inactive	–	–	–	–	–	–	–	–
CC12C=CCC1C1CCC3CC(=O)CCC3(C)C1CC2 (stereo not drawn)	inactive	inactive	inactive	inactive	inactive	inactive	inactive	active	inactive	inactive	inactive	active	active	active	–	–	–	–	–
CCCCCCCCOC(C)=O	inactive	inactive	inactive	inactive	inactive	inactive	inactive	inactive	inactive	inactive	inactive	–	–	–	–	–	–	–	–
CCC=CCCO	inactive	inactive	inactive	inactive	inactive	inactive	inactive	inactive	inactive	inactive	inactive	–	–	–	inactive	inactive	–	–	–
CC(C)C=O	inactive	inactive	inactive	inactive	inactive	inactive	inactive	inactive	inactive	inactive	inactive	–	–	–	–	–	–	–	–
CC(C)C(=O)O	inactive	inactive	inactive	inactive	inactive	inactive	inactive	inactive	inactive	inactive	inactive	–	–	–	–	–	–	–	–
CC=Cc1ccc(O)c(OC)c1	active	active	inactive	inactive	inactive	active	active	active	inactive	inactive	inactive	active	–	inactive	–	–	–	–	–
CC1=CCC(C(C)(C)O)CC1 (stereo not drawn)	inactive	inactive	inactive	inactive	inactive	inactive	inactive	inactive	inactive	inactive	inactive	–	–	–	–	–	–	–	–
CC12C=CCC1C1CCC3=CC(=O)CCC3(C)C1CC2 (stereo not drawn)	inactive	inactive	inactive	inactive	inactive	inactive	active	inactive	inactive	inactive	inactive	active	–	inactive	–	–	–	–	–
COc1cc(C=O)ccc1O	inactive	inactive	inactive	inactive	inactive	active	active	inactive	inactive	inactive	inactive	–	–	–	–	–	inactive	active	active
O=C1CCCCCCCCCCCCCCO1	inactive	inactive	inactive	inactive	inactive	inactive	inactive	inactive	inactive	inactive	inactive	–	–	–	–	–	–	–	–
CC12CCC(CC1)C(C)(C)O2	inactive	inactive	inactive	inactive	inactive	inactive	inactive	inactive	inactive	inactive	inactive	–	–	–	–	–	–	–	–
CC(C)(C)c1ccc(CCC=O)cc1	inactive	inactive	inactive	inactive	inactive	inactive	inactive	inactive	inactive	inactive	inactive	–	–	–	–	–	–	–	–
CC(C)=CCCC(C)=CC=O	inactive	inactive	inactive	inactive	inactive	inactive	active	inactive	inactive	inactive	inactive	–	–	–	–	–	–	–	–
CC(=O)OC(C)(C)C1CC=C(C)CC1 (stereo not drawn)	inactive	inactive	inactive	inactive	inactive	inactive	inactive	inactive	inactive	inactive	inactive	–	–	–	–	–	–	–	–
CCCC(=O)O	inactive	inactive	inactive	inactive	inactive	inactive	active	inactive	inactive	inactive	inactive	active	–	inactive	–	–	–	–	–
CC(C)CCC(=O)O	inactive	inactive	inactive	inactive	inactive	inactive	active	inactive	inactive	inactive	inactive	–	–	–	–	–	–	–	–
CCCCCCOC(=O)CCC	inactive	inactive	inactive	inactive	inactive	inactive	inactive	inactive	inactive	inactive	inactive	–	–	–	–	–	–	–	–
CC(=O)OCC=C(C)CCC=C(C)C	inactive	inactive	inactive	inactive	inactive	inactive	active	inactive	inactive	inactive	active	–	–	–	–	–	–	–	–
CC(C)CC(=O)O	inactive	inactive	inactive	inactive	inactive	inactive	inactive	inactive	inactive	inactive	inactive	–	–	–	–	–	–	–	–
CCCCCCCCCC=O	inactive	inactive	inactive	inactive	inactive	inactive	inactive	inactive	inactive	inactive	inactive	–	–	–	–	–	–	–	–

Entries of single compounds from above. Values in the order: odorant receptor agonist call (O10A4) | odorant receptor agonist call (O10A5) | odorant receptor agonist call (O10AD) | odorant receptor agonist call (O10C1 [1]) | odorant receptor agonist call (O10D3) | odorant receptor agonist call (O10G3) | odorant receptor agonist call (O10G4 [2]) | odorant receptor agonist call (O10G9) | odorant receptor agonist call (O10H2) | odorant receptor agonist call (O10H5) | odorant receptor agonist call (O10J1) | odorant receptor agonist call (O10A6 [3]) | odorant receptor agonist call (O10A6 [4]) | odorant receptor agonist call (O10A6 [5]) | odorant receptor agonist call (O10C1 [6]) | odorant receptor agonist call (O10C1 [7]) | odorant receptor agonist call (O10G4 [8]) | odorant receptor agonist call (O10G4 [9]) | odorant receptor agonist call (O10G4 [10])
CC(C)CC(=O)O as listed: inactive | inactive | inactive | inactive | inactive | inactive | inactive | inactive | inactive | inactive | inactive | – | – | – | – | – | – | – | –
CC12CCC(CC1)C(C)(C)O2 as listed: inactive | inactive | inactive | inactive | inactive | inactive | inactive | inactive | inactive | inactive | inactive | – | – | – | – | – | – | – | –
